In the supplement of paper PMC10849652:
Some of the results follow.

By UniProt entry, the sequences of proteins in these tests, tags left out. Where a name states a change or a piece, a line headed by the entry shows the natural chain unless it says otherwise.
UniProt P42285: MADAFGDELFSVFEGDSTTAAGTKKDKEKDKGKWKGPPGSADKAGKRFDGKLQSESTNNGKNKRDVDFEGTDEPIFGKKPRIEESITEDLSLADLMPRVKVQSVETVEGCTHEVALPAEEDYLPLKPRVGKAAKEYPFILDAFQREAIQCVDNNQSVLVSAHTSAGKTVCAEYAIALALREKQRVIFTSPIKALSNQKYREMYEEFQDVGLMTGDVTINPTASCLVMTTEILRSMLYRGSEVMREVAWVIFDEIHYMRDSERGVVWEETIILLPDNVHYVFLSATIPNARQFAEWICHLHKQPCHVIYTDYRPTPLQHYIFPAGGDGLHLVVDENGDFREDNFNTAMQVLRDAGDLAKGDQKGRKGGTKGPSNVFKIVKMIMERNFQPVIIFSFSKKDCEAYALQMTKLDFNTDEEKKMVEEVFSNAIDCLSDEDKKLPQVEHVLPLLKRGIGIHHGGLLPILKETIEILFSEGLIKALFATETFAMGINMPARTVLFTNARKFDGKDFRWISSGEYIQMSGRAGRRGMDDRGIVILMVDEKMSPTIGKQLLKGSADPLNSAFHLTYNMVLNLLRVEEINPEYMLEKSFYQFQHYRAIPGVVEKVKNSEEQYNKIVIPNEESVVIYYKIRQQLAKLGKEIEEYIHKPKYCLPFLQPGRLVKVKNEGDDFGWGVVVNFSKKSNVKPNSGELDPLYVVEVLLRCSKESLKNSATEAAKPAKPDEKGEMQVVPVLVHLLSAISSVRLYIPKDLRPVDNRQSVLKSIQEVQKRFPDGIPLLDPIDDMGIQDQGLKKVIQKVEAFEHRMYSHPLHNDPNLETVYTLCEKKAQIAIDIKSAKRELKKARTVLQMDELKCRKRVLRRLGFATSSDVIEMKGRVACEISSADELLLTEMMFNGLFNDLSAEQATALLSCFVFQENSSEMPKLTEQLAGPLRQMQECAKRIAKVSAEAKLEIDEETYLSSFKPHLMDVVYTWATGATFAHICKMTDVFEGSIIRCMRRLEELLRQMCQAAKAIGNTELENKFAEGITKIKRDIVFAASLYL
UniProt Q13615: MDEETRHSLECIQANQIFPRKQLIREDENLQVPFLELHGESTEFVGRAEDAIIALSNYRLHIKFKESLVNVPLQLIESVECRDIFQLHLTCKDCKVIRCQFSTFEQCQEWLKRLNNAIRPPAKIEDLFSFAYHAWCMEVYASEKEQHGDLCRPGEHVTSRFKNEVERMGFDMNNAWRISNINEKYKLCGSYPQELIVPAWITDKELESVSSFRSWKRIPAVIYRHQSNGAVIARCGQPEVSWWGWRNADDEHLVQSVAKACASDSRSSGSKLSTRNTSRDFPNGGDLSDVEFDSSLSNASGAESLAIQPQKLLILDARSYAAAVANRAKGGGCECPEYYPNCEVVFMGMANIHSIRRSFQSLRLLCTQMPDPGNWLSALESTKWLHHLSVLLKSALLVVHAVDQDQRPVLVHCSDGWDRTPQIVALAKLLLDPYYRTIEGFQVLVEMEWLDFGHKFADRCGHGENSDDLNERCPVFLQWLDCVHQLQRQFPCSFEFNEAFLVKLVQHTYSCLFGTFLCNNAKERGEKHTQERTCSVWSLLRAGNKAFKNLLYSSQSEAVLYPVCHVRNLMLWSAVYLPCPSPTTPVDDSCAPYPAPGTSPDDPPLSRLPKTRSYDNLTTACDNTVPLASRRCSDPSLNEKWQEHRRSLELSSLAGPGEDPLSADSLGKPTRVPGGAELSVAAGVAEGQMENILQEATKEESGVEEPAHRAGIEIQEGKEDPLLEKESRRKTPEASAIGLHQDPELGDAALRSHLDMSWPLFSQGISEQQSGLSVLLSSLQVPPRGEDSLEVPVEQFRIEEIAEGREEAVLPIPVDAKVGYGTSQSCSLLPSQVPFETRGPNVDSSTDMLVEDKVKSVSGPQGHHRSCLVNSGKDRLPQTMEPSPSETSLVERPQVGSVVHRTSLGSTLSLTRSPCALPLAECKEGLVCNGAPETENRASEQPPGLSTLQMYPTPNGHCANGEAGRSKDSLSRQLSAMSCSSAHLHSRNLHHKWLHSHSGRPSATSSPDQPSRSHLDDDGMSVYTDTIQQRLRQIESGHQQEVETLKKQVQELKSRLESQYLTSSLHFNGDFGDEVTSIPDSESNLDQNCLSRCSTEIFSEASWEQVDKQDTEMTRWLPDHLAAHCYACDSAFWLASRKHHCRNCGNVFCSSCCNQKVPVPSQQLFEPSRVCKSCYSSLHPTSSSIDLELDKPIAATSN
UniProt Q9Y6C9: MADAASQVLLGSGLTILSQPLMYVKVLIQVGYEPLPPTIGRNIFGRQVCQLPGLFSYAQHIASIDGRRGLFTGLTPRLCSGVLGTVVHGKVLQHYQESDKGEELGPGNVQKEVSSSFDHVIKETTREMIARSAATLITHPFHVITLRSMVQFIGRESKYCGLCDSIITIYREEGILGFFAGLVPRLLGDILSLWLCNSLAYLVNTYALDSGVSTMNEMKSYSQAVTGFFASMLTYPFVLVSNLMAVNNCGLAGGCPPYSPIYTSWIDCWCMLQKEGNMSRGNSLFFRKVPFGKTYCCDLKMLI
UniProt P52701: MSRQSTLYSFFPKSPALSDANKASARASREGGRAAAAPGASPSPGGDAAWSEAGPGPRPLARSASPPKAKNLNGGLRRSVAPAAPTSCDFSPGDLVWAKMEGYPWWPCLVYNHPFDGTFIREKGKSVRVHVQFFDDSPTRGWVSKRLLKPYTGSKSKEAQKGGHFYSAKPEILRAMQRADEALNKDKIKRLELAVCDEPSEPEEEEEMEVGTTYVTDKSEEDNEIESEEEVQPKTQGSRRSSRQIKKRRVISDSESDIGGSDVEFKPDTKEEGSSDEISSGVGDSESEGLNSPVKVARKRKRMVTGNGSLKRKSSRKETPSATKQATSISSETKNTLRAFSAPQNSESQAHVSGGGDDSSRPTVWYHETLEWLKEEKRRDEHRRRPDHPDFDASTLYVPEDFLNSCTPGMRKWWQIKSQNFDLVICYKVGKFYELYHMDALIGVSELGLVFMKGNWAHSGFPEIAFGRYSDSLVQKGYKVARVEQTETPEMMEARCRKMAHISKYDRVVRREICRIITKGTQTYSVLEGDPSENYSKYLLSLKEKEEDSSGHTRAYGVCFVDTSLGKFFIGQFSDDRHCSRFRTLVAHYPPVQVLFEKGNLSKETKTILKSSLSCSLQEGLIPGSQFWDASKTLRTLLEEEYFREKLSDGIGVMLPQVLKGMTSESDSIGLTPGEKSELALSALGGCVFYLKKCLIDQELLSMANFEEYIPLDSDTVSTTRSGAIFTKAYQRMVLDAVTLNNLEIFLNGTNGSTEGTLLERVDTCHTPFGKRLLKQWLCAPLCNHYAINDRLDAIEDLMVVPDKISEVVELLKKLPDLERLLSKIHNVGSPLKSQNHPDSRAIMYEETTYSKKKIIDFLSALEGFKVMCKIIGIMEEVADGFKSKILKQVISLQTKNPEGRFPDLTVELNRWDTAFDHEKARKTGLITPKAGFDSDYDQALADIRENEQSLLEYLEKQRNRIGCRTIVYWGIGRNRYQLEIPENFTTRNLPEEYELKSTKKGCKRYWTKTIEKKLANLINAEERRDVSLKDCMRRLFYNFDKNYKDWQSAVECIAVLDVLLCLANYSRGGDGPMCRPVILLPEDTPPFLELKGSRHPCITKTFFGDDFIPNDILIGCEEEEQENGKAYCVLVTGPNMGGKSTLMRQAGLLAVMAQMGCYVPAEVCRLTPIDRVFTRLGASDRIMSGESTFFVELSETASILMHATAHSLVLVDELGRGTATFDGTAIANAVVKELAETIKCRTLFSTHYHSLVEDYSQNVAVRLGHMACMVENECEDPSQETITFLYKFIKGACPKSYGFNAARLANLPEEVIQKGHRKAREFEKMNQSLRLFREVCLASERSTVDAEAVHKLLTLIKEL
UniProt P46199: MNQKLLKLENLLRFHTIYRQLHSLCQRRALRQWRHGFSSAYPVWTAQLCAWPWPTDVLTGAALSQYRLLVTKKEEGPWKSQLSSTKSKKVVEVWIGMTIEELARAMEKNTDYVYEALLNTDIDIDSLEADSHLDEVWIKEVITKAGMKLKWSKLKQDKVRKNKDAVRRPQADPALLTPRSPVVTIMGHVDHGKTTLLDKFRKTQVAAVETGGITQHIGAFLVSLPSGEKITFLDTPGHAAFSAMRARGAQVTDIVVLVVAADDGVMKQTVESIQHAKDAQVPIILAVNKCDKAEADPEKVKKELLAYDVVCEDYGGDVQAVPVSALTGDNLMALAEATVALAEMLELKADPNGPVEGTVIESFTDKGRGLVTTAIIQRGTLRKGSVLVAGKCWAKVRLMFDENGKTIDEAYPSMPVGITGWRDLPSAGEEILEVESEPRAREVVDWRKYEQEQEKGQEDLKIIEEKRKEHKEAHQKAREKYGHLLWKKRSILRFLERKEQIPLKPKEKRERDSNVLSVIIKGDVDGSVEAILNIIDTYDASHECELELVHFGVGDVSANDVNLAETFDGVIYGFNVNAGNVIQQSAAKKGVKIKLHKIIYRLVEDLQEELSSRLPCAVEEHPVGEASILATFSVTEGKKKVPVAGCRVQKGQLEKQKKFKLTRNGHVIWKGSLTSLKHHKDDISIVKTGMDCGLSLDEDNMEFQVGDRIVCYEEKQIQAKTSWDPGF
UniProt P03886, whole entry, looked up: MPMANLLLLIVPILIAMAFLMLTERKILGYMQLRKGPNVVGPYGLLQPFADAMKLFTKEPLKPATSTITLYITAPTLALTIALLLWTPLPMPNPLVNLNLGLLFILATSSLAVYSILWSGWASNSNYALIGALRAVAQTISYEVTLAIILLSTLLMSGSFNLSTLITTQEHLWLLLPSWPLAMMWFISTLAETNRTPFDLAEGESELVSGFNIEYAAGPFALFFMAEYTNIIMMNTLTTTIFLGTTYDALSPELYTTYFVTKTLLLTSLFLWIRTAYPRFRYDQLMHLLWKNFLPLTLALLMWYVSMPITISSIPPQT
UniProt Q13614, whole entry, looked up: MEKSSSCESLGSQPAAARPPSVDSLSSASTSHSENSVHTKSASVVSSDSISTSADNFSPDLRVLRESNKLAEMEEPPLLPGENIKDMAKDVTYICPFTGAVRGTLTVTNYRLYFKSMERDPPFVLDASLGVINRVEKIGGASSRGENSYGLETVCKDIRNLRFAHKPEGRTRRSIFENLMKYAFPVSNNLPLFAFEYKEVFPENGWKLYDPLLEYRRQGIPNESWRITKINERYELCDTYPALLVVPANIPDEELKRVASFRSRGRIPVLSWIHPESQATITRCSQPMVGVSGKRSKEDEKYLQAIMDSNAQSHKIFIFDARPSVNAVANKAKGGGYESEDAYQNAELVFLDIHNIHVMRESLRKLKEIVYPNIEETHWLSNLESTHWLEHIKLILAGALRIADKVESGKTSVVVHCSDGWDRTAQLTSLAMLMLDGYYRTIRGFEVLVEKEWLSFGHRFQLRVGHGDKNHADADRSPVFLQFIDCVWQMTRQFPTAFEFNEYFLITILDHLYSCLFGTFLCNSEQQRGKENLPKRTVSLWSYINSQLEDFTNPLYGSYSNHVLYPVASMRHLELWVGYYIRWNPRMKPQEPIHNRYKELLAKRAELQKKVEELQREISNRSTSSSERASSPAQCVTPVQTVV
UniProt P03905, whole entry, looked up: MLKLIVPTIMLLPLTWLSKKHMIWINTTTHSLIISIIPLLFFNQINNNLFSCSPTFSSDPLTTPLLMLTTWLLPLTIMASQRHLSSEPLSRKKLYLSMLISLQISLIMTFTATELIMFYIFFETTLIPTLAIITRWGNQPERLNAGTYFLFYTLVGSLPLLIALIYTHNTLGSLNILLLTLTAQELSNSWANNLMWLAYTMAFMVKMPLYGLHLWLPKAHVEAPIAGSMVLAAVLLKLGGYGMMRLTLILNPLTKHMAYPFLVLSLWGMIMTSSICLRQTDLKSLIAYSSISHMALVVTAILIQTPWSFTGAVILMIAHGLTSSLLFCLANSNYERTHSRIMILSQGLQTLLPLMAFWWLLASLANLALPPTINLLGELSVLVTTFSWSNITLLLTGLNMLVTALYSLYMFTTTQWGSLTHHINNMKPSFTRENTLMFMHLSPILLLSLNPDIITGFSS
UniProt P13995: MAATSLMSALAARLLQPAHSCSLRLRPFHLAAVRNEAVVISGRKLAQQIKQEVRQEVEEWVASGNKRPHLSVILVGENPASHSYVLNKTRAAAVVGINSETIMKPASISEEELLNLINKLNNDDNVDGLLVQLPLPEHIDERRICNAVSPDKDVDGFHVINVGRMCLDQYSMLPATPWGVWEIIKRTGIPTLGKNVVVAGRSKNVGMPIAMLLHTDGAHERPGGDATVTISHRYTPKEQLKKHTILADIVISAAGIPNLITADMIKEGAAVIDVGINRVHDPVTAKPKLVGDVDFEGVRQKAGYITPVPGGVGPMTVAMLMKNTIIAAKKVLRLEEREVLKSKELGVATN

Columns and labels:
Experiment in all cases: log2 fold change, soluble protein after heating vs DMSO (PISA); higher = thermal stabilisation; K562 lysate, 10 uM; active = over 0.2 and 3.5 SD of the protein, either way, in both replicates (recomputed)
[1] = compound: CCCS(=O)(=O)Nc1ccc(F)c(C(=O)c2c[nH]c3ncc(-c4ccc(Cl)cc4)cc23)c1F [vemurafenib]
In short: (§1)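 Following dounce homogenisation of K562 pellets in PBS pH 7.4 with 1 mM MgCl2, crude extract at 1 mg/mL protein was incubated for 30 min with 10 μM compound. Aliquots were then heated for 3 min over 48°C-58°C and pooled, NP-40 was added to 0.5% at 4°C, and soluble protein was recovered as the supernatant at 21,000xg for 90 min. Channel-sum-equalised TMTpro 16plex LC-MS/MS quantified this protein. Each value, from duplicates, is a log-two fold change in thermal stability relative to solvent controls.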

[2] = compound: CCCS(=O)(=O)Nc1ccc(F)c(C(=O)c2c[nH]c3ncc(Cl)cc23)c1F
In short: as §1

[3] = compound: CCN(CCCOc1ccc2c(Nc3cc(CC(=O)Nc4cccc(F)c4)[nH]n3)ncnc2c1)CCOP(=O)(O)O [barasertib]
In short: as §1

[4] = compound: CC[C@@H]1C(=O)N(C)c2cnc(Nc3ccc(C(=O)NC4CCN(C)CC4)cc3OC)nc2N1C1CCCC1
In short: as §1

[5] = compound: CC[C@@H]1C(=O)N(C)c2cnc(Nc3ccc(C(=O)N[C@H]4CC[C@H](N5CCN(CC6CC6)CC5)CC4)cc3OC)nc2N1C(C)C [volasertib]
In short: as §1

[6] = compound: CCn1c(C(=O)N(C2CC2)C2CC2)cc2c3c(ncn3C)c(Nc3cc(C)n(C)n3)nc21
In short: as §1

[7] = compound: CCn1cc(-c2ccnc3[nH]c(-c4cccc(CN(C)C)c4)cc23)c(-c2ccc(NC(=O)N(C)C)cc2)n1
In short: as §1

[8] = compound: CN1CCC(CNc2ccc3ncc(-c4cccc(OC(F)(F)F)c4)n3n2)CC1
In short: as §1

[9] = compound: CN1CCN(CCOc2cc(OC3CCOCC3)c3c(Nc4c(Cl)ccc5c4OCO5)ncnc3c2)CC1 [saracatinib]
In short: as §1

[10] = compound: CN1CCN(c2nc(C3=C(c4c[nH]c5ccccc45)C(=O)NC3=O)c3ccccc3n2)CC1 [sotrastaurin]
In short: as §1

[11] = compound: CN1CC[C@H](c2c(O)cc(O)c3c(=O)cc(-c4ccccc4Cl)oc23)[C@H](O)C1 [alvocidib]
In short: as §1

[12] = compound: CN1CCc2c(c3ccccc3n2Cc2ccc(C(=O)NO)cc2)C1 [Tubastatin A]
In short: as §1

[13] = compound: CNC(=O)C1=CC=CC=C1NC2=NC(=NC=C2Cl)NC3=C(C=C(C=C3)N4CCOCC4)OC
In short: as §1

[14] = compound: CNC(=O)c1ccc(Nc2ncc(C(F)(F)F)c(NCc3nccnc3N(C)S(C)(=O)=O)n2)cc1 [defactinib]
In short: as §1

[15] = compound: CNc1nc(-c2ccc3c(N)n[nH]c3c2)cc(N2C[C@@H](C(=O)NC3CCCCC3)CC[C@H]2C)n1
In short: as §1

[16] = compound: COC(=O)N[C@@H](C)CNc1nccc(-c2cn(C(C)C)nc2-c2cc(Cl)cc(NS(C)(=O)=O)c2F)n1 [encorafenib]
In short: as §1

[17] = compound: COC(=O)[C@H](CCSC)NC(=O)C1=C(C=C(C=C1)NC[C@H](CS)N)C2=CC=CC=C2
In short: as §1

[18] = compound: COc1cc(Nc2ncc3c(n2)-c2ccc(Cl)cc2C(c2c(F)cccc2OC)=NC3)ccc1C(=O)O [alisertib]
In short: as §1

[19] = compound: COc1cc2nc(-c3cc(F)ccc3O)nc(N[C@@H]3CNC[C@H]3C(C)(C)O)c2cc1OC
In short: as §1

[20] = compound: COc1cc2ncnc(Nc3ccc(F)c(Cl)c3)c2cc1OCCCN1CCOCC1 [gefitinib]
In short: as §1

Measured: log2 fold change

MRPS24 (UniProt Q96EL2)
inactive: [1] 0 | [2] -0.004 | [3] 0.05 | [4] -0.122 | [5] -0.015 | [6] 0.011 | [7] -0.158 | [8] 0.114 | [9] 0.107 | [10] 0.04 | [11] -0.052 | [12] -0.039 | [13] -0.093 | [14] -0.206 | [15] -0.27 | [16] -0.016 | [17] 0.004 | [18] 0.038 | [19] 0.001 | [20] -0.082

MTREX (UniProt P42285)
inactive: [1] -0.003 | [2] 0.001 | [3] 0.018 | [4] -0.009 | [5] -0.012 | [6] -0.001 | [7] -0.025 | [8] 0.032 | [9] 0.009 | [10] 0 | [11] -0.007 | [12] -0.005 | [13] -0.001 | [14] -0.004 | [15] -0.002 | [16] 0.003 | [17] 0.027 | [18] 0.003 | [19] 0.006 | [20] 0.005

MTMR3 (UniProt Q13615)
inactive: [1] 0.046 | [2] 0.024 | [3] 0.012 | [4] 0.025 | [5] -0.041 | [6] 0.053 | [7] -0.039 | [8] -0.033 | [9] 0.02 | [10] -0.069 | [11] 0.056 | [12] -0.04 | [13] 0.06 | [14] -0.038 | [15] -0.009 | [16] 0.073 | [17] -0.033 | [18] -0.01 | [19] -0.027 | [20] 0.019

MTCH2 (UniProt Q9Y6C9)
inactive: [1] 0.013 | [2] 0.008 | [3] -0.02 | [4] 0.021 | [5] 0.05 | [6] -0.012 | [7] -0.155 | [8] 0.014 | [9] -0.011 | [10] 0.022 | [11] -0.032 | [12] -0.046 | [13] 0.043 | [14] -0.003 | [15] 0.047 | [16] -0.01 | [17] 0.043 | [18] 0.013 | [19] -0.062 | [20] -0.007

MSH6 (UniProt P52701)
inactive: [1] 0.024 | [2] 0.028 | [3] 0.021 | [4] -0.109 | [5] -0.061 | [6] 0.044 | [7] -0.035 | [8] -0.041 | [9] -0.003 | [10] 0.047 | [11] -0.021 | [12] -0.17 | [13] 0.009 | [14] 0.012 | [15] -0.032 | [16] 0.019 | [17] 0.105 | [18] 0.003 | [19] -0.011 | [20] -0.023

MRPS23 (UniProt Q9Y3D9)
inactive: [1] -0.006 | [2] 0.018 | [3] 0.086 | [4] -0.003 | [5] -0.012 | [6] 0.058 | [7] 0.124 | [8] -0.117 | [9] 0.042 | [10] -0.003 | [11] 0.071 | [12] -0.043 | [13] -0.005 | [14] -0.034 | [15] -0.036 | [16] -0.016 | [17] 0.019 | [18] -0.011 | [19] -0.037 | [20] -0.01

MRPL48 (UniProt Q96GC5)
inactive: [1] -0.025 | [2] -0.003 | [3] -0.03 | [4] -0.039 | [5] -0.012 | [6] 0.009 | [7] -0.028 | [8] -0.179 | [9] 0.019 | [10] 0.006 | [11] 0.068 | [12] -0.058 | [13] -0.014 | [14] 0.006 | [15] -0.017 | [16] 0.003 | [17] 0.052 | [18] -0.02 | [19] -0.065 | [20] 0

MRPL40 (UniProt Q9NQ50)
inactive: [1] -0.039 | [2] 0.003 | [3] -0.033 | [4] 0.147 | [5] 0.032 | [6] -0.01 | [7] 0.031 | [8] -0.046 | [9] 0.019 | [10] 0.014 | [11] 0.122 | [12] 0.048 | [13] 0.068 | [14] 0.069 | [15] 0.109 | [16] -0.003 | [17] 0.074 | [18] 0.023 | [19] -0.026 | [20] -0.014

MTIF2 (UniProt P46199)
inactive: [1] 0.025 | [2] 0.025 | [3] 0.048 | [4] -0.005 | [5] -0.055 | [6] -0.008 | [7] 0.046 | [8] -0.135 | [9] 0.03 | [10] -0.001 | [11] 0.049 | [12] -0.087 | [13] 0.006 | [14] 0.068 | [15] -0.013 | [16] 0.015 | [17] 0.029 | [18] -0.008 | [19] -0.017 | [20] -0.015

MT-ND1 (UniProt P03886)
inactive: [1] -0.074 | [2] 0.012 | [3] 0.056 | [4] -0.068 | [5] -0.04 | [6] -0.096 | [7] -0.355 | [8] 0.066 | [9] 0.075 | [10] 0.038 | [11] -0.149 | [12] -0.037 | [13] 0.043 | [14] 0.081 | [15] 0.014 | [16] 0.046 | [17] -0.051 | [18] 0.032 | [19] -0.073 | [20] 0.087

Quoted from above (five entries):
MTCH2 (UniProt Q9Y6C9)
inactive: [1] 0.013 | [2] 0.008 | [3] -0.02 | [4] 0.021 | [5] 0.05 | [6] -0.012 | [7] -0.155 | [8] 0.014 | [9] -0.011 | [10] 0.022 | [11] -0.032 | [12] -0.046 | [13] 0.043 | [14] -0.003 | [15] 0.047 | [16] -0.01 | [17] 0.043 | [18] 0.013 | [19] -0.062 | [20] -0.007

MSH6 (UniProt P52701)
inactive: [1] 0.024 | [2] 0.028 | [3] 0.021 | [4] -0.109 | [5] -0.061 | [6] 0.044 | [7] -0.035 | [8] -0.041 | [9] -0.003 | [10] 0.047 | [11] -0.021 | [12] -0.17 | [13] 0.009 | [14] 0.012 | [15] -0.032 | [16] 0.019 | [17] 0.105 | [18] 0.003 | [19] -0.011 | [20] -0.023

MRPS23 (UniProt Q9Y3D9)
inactive: [1] -0.006 | [2] 0.018 | [3] 0.086 | [4] -0.003 | [5] -0.012 | [6] 0.058 | [7] 0.124 | [8] -0.117 | [9] 0.042 | [10] -0.003 | [11] 0.071 | [12] -0.043 | [13] -0.005 | [14] -0.034 | [15] -0.036 | [16] -0.016 | [17] 0.019 | [18] -0.011 | [19] -0.037 | [20] -0.01

MRPL48 (UniProt Q96GC5)
inactive: [1] -0.025 | [2] -0.003 | [3] -0.03 | [4] -0.039 | [5] -0.012 | [6] 0.009 | [7] -0.028 | [8] -0.179 | [9] 0.019 | [10] 0.006 | [11] 0.068 | [12] -0.058 | [13] -0.014 | [14] 0.006 | [15] -0.017 | [16] 0.003 | [17] 0.052 | [18] -0.02 | [19] -0.065 | [20] 0

MRPL40 (UniProt Q9NQ50)
inactive: [1] -0.039 | [2] 0.003 | [3] -0.033 | [4] 0.147 | [5] 0.032 | [6] -0.01 | [7] 0.031 | [8] -0.046 | [9] 0.019 | [10] 0.014 | [11] 0.122 | [12] 0.048 | [13] 0.068 | [14] 0.069 | [15] 0.109 | [16] -0.003 | [17] 0.074 | [18] 0.023 | [19] -0.026 | [20] -0.014

Further records follow.

MTMR2 (UniProt Q13614)
inactive: [1] 0.023 | [2] -0.009 | [3] 0.036 | [4] 0.055 | [5] -0.001 | [6] 0.092 | [7] -0.048 | [8] 0.038 | [9] 0.027 | [10] 0.047 | [11] -0.008 | [12] 0.044 | [13] 0 | [14] -0.012 | [15] -0.026 | [16] -0.001 | [17] 0.034 | [18] 0.094 | [19] 0.015 | [20] 0.078

MRPS10 (UniProt P82664)
inactive: [1] 0.05 | [2] -0.005 | [3] -0.019 | [4] 0.025 | [5] 0.004 | [6] -0.042 | [7] -0.193 | [8] 0.04 | [9] 0.033 | [10] -0.007 | [11] -0.005 | [12] 0.003 | [13] 0.027 | [14] -0.008 | [15] 0.041 | [16] 0.018 | [17] 0.022 | [18] 0.101 | [19] -0.061 | [20] -0.02

MRPS18A isoform 2 (UniProt Q9NVS2)
inactive: [1] 0.073 | [2] 0.03 | [3] 0.037 | [4] 0.073 | [5] -0.019 | [6] -0.04 | [8] -0.121 | [9] -0.042 | [10] 0.036 | [11] 0.18 | [12] -0.047 | [13] -0.156 | [14] -0.024 | [15] 0.106 | [16] 0.029 | [17] -0.037 | [18] 0.041 | [19] -0.017 | [20] 0.008
active: [7] 0.306

MT-ND4 (UniProt P03905)
inactive: [1] 0 | [2] -0.03 | [3] 0.042 | [4] 0.029 | [5] -0.04 | [6] 0.029 | [7] 0.083 | [8] 0.034 | [9] 0.081 | [10] -0.004 | [11] -0.154 | [12] 0.074 | [13] -0.014 | [14] 0.127 | [15] 0.013 | [16] 0.101 | [17] -0.065 | [18] -0.014 | [19] -0.035 | [20] 0.051

MTHFD2 (UniProt P13995)
inactive: [1] -0.023 | [2] -0.008 | [3] -0.047 | [4] -0.044 | [5] -0.014 | [6] 0.034 | [7] 0.007 | [8] -0.029 | [9] -0.008 | [10] 0.015 | [11] -0.037 | [12] 0.004 | [13] -0.022 | [14] 0.041 | [15] -0.046 | [16] -0.023 | [17] 0.031 | [18] 0.031 | [19] -0.007 | [20] 0.012

MRPS33 (UniProt Q9Y291)
inactive: [1] -0.005 | [2] 0.016 | [3] -0.025 | [4] -0.047 | [5] -0.028 | [6] -0.007 | [7] 0.035 | [8] -0.044 | [9] 0.043 | [10] -0.011 | [11] 0.068 | [12] 0.047 | [13] 0.012 | [14] 0.065 | [15] -0.121 | [16] -0.054 | [17] 0.064 | [18] 0.042 | [19] -0.024 | [20] -0.097
